# Where a name gives a salt, the structure may show the parent alone. This is one part of the list. Many values rest on one well or one pass, so single values are uncertain.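 Labelled rat cortical synaptosomes were engulfed by primary human fetal astrocytes. Engulfment equaled a red/green ratio, corrected for calcein live-cell signal and normalized to the plate median. Compounds were toxic when calcein dropped over 30%, and reduced phagocytosis when below 70% of the median above 5 µM.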
# Experiments:
# Conditions in all cases: 24 h
# [1] = system: Human fetal astrocytes; assay: loss of total cells relative to no-compound high-control median (toxicity); higher = more toxic (fewer cells)
# [2] = system: Human fetal astrocytes; assay: as above; remark: listed apart in the source
# [3] = system: Human fetal astrocytes; assay: synaptosome phagocytosis (pHrodo/calcein intensity ratio) relative to plate median of data wells; higher = more phagocytosis
# [4] = system: Human fetal astrocytes; assay: as above; remark: listed apart in the source
SMILES,loss of total cells ([1]; 1.39 µM) [%],loss of total cells ([1]; 2.78 µM) [%],loss of total cells ([1]; 5.56 µM) [%],loss of total cells ([1]; 11.11 µM) [%],loss of total cells ([1]; 22.22 µM) [%],loss of total cells ([2]; 1.39 µM) [%],loss of total cells ([2]; 2.78 µM) [%],loss of total cells ([2]; 5.56 µM) [%],loss of total cells ([2]; 11.11 µM) [%],loss of total cells ([2]; 22.22 µM) [%],synaptosome phagocytosis ([3]; 1.39 µM) [%],synaptosome phagocytosis ([3]; 2.78 µM) [%],synaptosome phagocytosis ([3]; 5.56 µM) [%],synaptosome phagocytosis ([3]; 11.11 µM) [%],synaptosome phagocytosis ([3]; 22.22 µM) [%],synaptosome phagocytosis ([4]; 1.39 µM) [%],synaptosome phagocytosis ([4]; 2.78 µM) [%],synaptosome phagocytosis ([4]; 5.56 µM) [%],synaptosome phagocytosis ([4]; 11.11 µM) [%],synaptosome phagocytosis ([4]; 22.22 µM) [%]
CCN(CC)CCNC(=O)c1cc(S(C)(=O)=O)ccc1OC [Tiapride hydrochloride],-15.8,-9.9,-13.5,-20.3,15.6,-21.8,-27,-9.3,12.8,-0.9,102,117,121,108,130,94.6,88.8,122,122,108
C[N+](C)(C)CC(=O)O [Betaine hydrochloride],3.3,-2.1,-24.4,-18.4,15.4,-22.6,-46,-1.2,-12.1,-5.3,121,69.2,88.2,67.8,87.6,130,112,98.3,81.1,111
NC(=O)N1c2ccccc2C=Cc2ccccc21 [Carbamazepine],-23.1,-13.5,-26.3,4.9,-4.1,-16.6,-4.6,8.7,-3.1,-13,90.3,86.6,87.4,141,111,121,108,122,126,88
C#CCN(C)CCCOc1ccc(Cl)cc1Cl [Clorgyline hydrochloride],-26.1,-5.9,9.9,11.4,26.2,3.2,3.2,19.6,1.3,6.1,98.4,128,120,112,130,93.5,94,72.5,80.4,99.4
CCN(CC)CC#CCOC(=O)C(O)(c1ccccc1)C1CCCCC1 (stereo not given) [Oxybutynin Chloride],-23.2,5,6.1,12.4,19.6,24.9,-11.3,16.5,0.8,13.6,96.8,73.8,93.8,104,107,117,120,103,91.8,93.8
COc1ccc2cc([C@H](C)C(=O)O)ccc2c1 [(-)-Naproxen sodium],-9,7.7,3.3,-4.8,0,-27.4,-18,-0.9,-2.3,12.5,89,93.5,102,128,108,97.7,106,109,111,108
CN1CCN(C2=Nc3ccccc3Oc3ccc(Cl)cc32)CC1 [Loxapine succinate],-2.4,5,2.3,16.2,-13.1,-18.5,16.6,-13.7,3.2,-7,101,110,103,72.6,102,102,81.2,73.1,97.3,102
CC(=O)OC(C)C[N+](C)(C)C (stereo not drawn) [Acetyl-beta-methylcholine chloride],-20.6,-15.9,-12.4,9.4,4.1,-0.8,-9.5,11.7,6.3,-4,78.9,129,108,107,118,65.4,104,94.8,125,104
CNCCC(Oc1ccc(C(F)(F)F)cc1)c1ccccc1 (stereo not given) [Fluoxetine hydrochloride],-4.6,-28.2,5.8,-16.6,4,-32.3,26.2,13,48.9,40.8,25.4,59.1,52.4,65.3,20.2,117,86.4,93.1,84.4,72.5
O=C(O)c1cccnc1Nc1cccc(C(F)(F)F)c1 [Niflumic acid],-9,14,15.5,7.6,14,-1.1,9.7,11.6,-6.3,-0.8,126,97.9,141,126,71.1,109,100,112,96.6,131
N[C@H]1CONC1=O [L-Cycloserine],-24.6,-13.2,-20.7,-14.8,-2.6,-15.7,-6.4,-30.7,-5.5,33.7,98,86.7,154,99.2,118,101,91.1,94.5,95.4,112
CCN(CC)CC(=O)Nc1c(C)cccc1C [Lidocaine hydrochloride],-13.7,5.9,3.3,20,6.5,41.2,-15.3,11.1,8.9,-27.1,60.3,41.2,28.4,62.7,63.4,103,103,80.5,123,132
CC(=O)O[C@H]1C(=O)[C@@]2(C)[C@H]([C@H](OC(=O)c3ccccc3)[C@]3(O)C[C@H](OC(=O)[C@H](O)[C@@H](NC(=O)c4ccccc4)c4ccccc4)C(C)=C1C3(C)C)[C@]1(OC(C)=O)CO[C@@H]1C[C@@H]2O [Taxol],3.4,-12.3,11.2,-5.7,-4.1,-35.5,23,-3.1,25.2,16.5,116,136,112,132,116,143,109,124,127,134
O=C(O)CCCCCCCC(=O)O [Azelaic acid],-2.2,-9.3,-5.1,4,7.9,-5.6,-22,-21.6,-6.6,33.1,81.2,127,124,120,98.9,71.9,108,108,92.3,96.7
NC(=O)c1ncn([C@@H]2O[C@H](CO)[C@@H](O)[C@H]2O)n1 [Ribavirin],-4,-23.7,-14.6,1.1,-7.4,-18.5,33.3,-1.9,40.3,-3.4,73.4,105,75.4,135,88,94.9,103,131,119,106
O=c1c(O)c(-c2cc(O)c(O)c(O)c2)oc2cc(O)cc(O)c12 [Myricetin],7.1,10.4,5.2,16.2,21.5,-20.5,-3.2,11.7,34.5,30.4,88.5,121,115,89.9,126,109,98.2,115,95.5,85.7
NC[C@@H](O)c1ccc(O)c(O)c1 [L(-)-Norepinephrine bitartrate],-1.8,-5.4,-11.5,7.6,19.2,1.7,5.2,5.1,0.8,30.6,101,120,114,81.3,95.6,96.1,119,75,104,96.1
O=c1cc(-c2ccc(O)cc2)oc2cc(O)cc(O)c12 [Apigenin],-5.1,3,-28.1,-28.3,1.9,19.9,6.6,-6.9,36.8,24.8,150,94.5,73.5,128,93.1,127,109,89.1,50.2,75.2
O=C1CN(/N=C/c2ccc(-c3ccc([N+](=O)[O-])cc3)o2)C(=O)N1 [Dantrolene sodium],5.4,-12,-3.3,-6.7,-3.2,-33.9,9.5,16.1,46.9,-2.2,89.8,105,98.5,127,86.1,103,79.9,105,101,116
CCC1(c2ccccc2)C(=O)NCNC1=O [Primidone],-18.3,-41.6,-1.7,-24.1,-14.8,-2.1,-14.6,-13.2,7.2,31.3,117,109,77.4,100,145,113,109,88.2,88.9,76.6
O=C(O)c1cccnc1C(=O)O [Quinolinic acid],-7.8,-15.3,-15.7,-10.3,-20.6,-1.8,8.3,13.8,4.6,-0.8,133,104,108,123,123,94.3,103,109,98.2,116
NNCCc1ccccc1 [Phenelzine sulfate],1.6,-0.9,-3.9,4.2,7.4,17.4,-11.3,12.3,-23.4,10.2,120,108,94.3,124,96.5,128,97,111,86.7,95.7
CCN(CC)C(=O)c1ccc(O)c(OC)c1 [Vanillic acid diethylamide],2.9,-14.5,0.8,-19.3,1.6,-7.6,6.6,-6.1,9.7,-5.6,128,122,122,131,90.4,92.9,103,112,92.3,95.4
CCOC(=O)c1ncn2c1CN(C)C(=O)c1cc(F)ccc1-2 [Flumazenil],-0.4,-6.8,-2.5,-15.7,-8,-37.1,19.8,5,31.8,30.2,77.1,185,124,154,142,88.2,104,97.5,122,125
O=C1OC(=O)[C@H]2[C@@H]1[C@@H]1CC[C@H]2O1 [Norcantharidin],-3.3,5.9,-2.3,8.6,4.7,2.5,0.4,10.3,16.9,8.9,90.6,102,129,122,118,110,120,139,77.3,102
COc1cc2nc(N3CCN(C(=O)c4ccco4)CC3)nc(N)c2cc1OC [Prazosin hydrochloride],-0.3,-6.3,-1.7,9.6,-0.8,3.9,-15.3,-9.8,-11.8,27.7,98.8,98.8,60.4,106,89.4,120,92.6,119,123,112

# Record cards, as listed above. Order of values: loss of total cells ([1]; 1.39 µM) [%] | loss of total cells ([1]; 2.78 µM) [%] | loss of total cells ([1]; 5.56 µM) [%] | loss of total cells ([1]; 11.11 µM) [%] | loss of total cells ([1]; 22.22 µM) [%] | loss of total cells ([2]; 1.39 µM) [%] | loss of total cells ([2]; 2.78 µM) [%] | loss of total cells ([2]; 5.56 µM) [%] | loss of total cells ([2]; 11.11 µM) [%] | loss of total cells ([2]; 22.22 µM) [%] | synaptosome phagocytosis ([3]; 1.39 µM) [%] | synaptosome phagocytosis ([3]; 2.78 µM) [%] | synaptosome phagocytosis ([3]; 5.56 µM) [%] | synaptosome phagocytosis ([3]; 11.11 µM) [%] | synaptosome phagocytosis ([3]; 22.22 µM) [%] | synaptosome phagocytosis ([4]; 1.39 µM) [%] | synaptosome phagocytosis ([4]; 2.78 µM) [%] | synaptosome phagocytosis ([4]; 5.56 µM) [%] | synaptosome phagocytosis ([4]; 11.11 µM) [%] | synaptosome phagocytosis ([4]; 22.22 µM) [%]
# NC[C@@H](O)c1ccc(O)c(O)c1 [L(-)-Norepinephrine bitartrate] is entered as -1.8 | -5.4 | -11.5 | 7.6 | 19.2 | 1.7 | 5.2 | 5.1 | 0.8 | 30.6 | 101 | 120 | 114 | 81.3 | 95.6 | 96.1 | 119 | 75 | 104 | 96.1
# CN1CCN(C2=Nc3ccccc3Oc3ccc(Cl)cc32)CC1 [Loxapine succinate] is entered as -2.4 | 5 | 2.3 | 16.2 | -13.1 | -18.5 | 16.6 | -13.7 | 3.2 | -7 | 101 | 110 | 103 | 72.6 | 102 | 102 | 81.2 | 73.1 | 97.3 | 102

# — the supplement of paper PMC10689618
